Experimental findings from the supplement of paper PMC11006884 are described below.

Chains of the proteins cited; added tags and fusions are not shown. Lines headed by an entry give the natural chain unless they say otherwise; changes in a name come on top.
UniProt Q9Y5K6, whole entry: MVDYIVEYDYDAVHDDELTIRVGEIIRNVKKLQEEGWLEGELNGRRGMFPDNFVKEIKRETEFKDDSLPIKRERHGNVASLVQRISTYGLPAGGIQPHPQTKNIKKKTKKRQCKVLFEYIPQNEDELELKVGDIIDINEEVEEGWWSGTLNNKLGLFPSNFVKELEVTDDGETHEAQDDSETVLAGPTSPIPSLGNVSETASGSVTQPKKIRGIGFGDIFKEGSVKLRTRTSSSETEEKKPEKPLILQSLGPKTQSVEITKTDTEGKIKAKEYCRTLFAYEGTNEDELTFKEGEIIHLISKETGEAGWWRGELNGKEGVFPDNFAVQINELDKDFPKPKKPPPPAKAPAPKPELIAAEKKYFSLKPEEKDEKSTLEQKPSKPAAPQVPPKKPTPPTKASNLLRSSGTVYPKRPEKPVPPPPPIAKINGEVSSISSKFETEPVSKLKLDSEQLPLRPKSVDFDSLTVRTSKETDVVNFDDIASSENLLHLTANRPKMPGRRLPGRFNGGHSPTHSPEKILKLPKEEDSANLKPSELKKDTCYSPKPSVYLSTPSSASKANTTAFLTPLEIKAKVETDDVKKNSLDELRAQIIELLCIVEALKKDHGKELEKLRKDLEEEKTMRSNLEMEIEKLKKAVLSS
UniProt Q9Y4X5: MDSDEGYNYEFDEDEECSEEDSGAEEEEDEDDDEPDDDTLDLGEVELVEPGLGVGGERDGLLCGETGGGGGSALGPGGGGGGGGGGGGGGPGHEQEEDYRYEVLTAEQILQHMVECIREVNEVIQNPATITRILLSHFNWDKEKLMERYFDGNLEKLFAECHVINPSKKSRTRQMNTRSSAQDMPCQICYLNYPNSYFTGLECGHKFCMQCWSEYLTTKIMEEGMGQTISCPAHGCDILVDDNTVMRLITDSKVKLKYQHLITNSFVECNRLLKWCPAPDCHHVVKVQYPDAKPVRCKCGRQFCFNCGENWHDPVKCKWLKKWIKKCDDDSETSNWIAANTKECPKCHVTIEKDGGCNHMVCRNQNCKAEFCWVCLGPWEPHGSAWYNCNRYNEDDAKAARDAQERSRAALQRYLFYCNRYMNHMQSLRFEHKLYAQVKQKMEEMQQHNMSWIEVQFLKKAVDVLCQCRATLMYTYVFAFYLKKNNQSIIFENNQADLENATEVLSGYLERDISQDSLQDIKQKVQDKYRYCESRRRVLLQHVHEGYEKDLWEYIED
UniProt Q9Y679: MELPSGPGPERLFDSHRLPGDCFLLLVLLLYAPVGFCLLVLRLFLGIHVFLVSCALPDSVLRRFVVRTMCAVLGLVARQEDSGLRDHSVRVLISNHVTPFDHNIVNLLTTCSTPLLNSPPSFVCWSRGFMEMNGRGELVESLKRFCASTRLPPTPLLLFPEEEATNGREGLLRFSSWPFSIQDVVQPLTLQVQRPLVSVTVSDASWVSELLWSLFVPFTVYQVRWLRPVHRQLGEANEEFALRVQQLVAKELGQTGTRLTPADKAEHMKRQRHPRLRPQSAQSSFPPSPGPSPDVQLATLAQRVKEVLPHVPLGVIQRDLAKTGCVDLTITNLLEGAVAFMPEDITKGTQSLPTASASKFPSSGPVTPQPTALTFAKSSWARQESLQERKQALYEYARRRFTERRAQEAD
UniProt Q9Y4C2: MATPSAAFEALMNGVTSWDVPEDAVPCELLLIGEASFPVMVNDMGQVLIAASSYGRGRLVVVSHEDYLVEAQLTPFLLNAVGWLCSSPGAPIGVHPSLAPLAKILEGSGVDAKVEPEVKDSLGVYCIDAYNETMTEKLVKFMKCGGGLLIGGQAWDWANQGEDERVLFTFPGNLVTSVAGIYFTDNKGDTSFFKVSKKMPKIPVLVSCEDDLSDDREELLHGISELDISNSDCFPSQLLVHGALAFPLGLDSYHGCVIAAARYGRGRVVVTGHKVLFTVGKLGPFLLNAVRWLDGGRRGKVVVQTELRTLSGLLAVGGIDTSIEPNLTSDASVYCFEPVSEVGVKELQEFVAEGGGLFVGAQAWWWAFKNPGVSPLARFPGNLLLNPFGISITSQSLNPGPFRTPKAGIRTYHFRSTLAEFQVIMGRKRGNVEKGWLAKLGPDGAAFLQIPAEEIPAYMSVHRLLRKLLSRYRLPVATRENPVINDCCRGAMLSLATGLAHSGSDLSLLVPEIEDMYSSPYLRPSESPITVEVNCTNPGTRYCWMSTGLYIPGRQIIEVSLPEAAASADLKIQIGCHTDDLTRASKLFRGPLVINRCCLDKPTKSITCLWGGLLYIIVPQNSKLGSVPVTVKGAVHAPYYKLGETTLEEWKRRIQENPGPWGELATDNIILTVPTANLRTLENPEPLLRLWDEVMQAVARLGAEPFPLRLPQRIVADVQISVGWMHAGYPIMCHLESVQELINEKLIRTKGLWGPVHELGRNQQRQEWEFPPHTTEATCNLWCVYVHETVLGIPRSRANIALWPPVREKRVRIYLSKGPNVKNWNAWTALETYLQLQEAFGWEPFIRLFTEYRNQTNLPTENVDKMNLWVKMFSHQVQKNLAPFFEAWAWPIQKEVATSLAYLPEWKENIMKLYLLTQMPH
UniProt Q9Y5Y2: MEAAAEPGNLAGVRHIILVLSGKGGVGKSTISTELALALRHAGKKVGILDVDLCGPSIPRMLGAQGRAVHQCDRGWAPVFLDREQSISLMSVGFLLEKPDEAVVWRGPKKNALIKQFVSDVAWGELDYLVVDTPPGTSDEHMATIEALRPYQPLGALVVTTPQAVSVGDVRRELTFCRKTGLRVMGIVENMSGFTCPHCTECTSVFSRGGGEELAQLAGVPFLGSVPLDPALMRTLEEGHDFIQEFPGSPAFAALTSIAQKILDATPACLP
UniProt Q9Y490: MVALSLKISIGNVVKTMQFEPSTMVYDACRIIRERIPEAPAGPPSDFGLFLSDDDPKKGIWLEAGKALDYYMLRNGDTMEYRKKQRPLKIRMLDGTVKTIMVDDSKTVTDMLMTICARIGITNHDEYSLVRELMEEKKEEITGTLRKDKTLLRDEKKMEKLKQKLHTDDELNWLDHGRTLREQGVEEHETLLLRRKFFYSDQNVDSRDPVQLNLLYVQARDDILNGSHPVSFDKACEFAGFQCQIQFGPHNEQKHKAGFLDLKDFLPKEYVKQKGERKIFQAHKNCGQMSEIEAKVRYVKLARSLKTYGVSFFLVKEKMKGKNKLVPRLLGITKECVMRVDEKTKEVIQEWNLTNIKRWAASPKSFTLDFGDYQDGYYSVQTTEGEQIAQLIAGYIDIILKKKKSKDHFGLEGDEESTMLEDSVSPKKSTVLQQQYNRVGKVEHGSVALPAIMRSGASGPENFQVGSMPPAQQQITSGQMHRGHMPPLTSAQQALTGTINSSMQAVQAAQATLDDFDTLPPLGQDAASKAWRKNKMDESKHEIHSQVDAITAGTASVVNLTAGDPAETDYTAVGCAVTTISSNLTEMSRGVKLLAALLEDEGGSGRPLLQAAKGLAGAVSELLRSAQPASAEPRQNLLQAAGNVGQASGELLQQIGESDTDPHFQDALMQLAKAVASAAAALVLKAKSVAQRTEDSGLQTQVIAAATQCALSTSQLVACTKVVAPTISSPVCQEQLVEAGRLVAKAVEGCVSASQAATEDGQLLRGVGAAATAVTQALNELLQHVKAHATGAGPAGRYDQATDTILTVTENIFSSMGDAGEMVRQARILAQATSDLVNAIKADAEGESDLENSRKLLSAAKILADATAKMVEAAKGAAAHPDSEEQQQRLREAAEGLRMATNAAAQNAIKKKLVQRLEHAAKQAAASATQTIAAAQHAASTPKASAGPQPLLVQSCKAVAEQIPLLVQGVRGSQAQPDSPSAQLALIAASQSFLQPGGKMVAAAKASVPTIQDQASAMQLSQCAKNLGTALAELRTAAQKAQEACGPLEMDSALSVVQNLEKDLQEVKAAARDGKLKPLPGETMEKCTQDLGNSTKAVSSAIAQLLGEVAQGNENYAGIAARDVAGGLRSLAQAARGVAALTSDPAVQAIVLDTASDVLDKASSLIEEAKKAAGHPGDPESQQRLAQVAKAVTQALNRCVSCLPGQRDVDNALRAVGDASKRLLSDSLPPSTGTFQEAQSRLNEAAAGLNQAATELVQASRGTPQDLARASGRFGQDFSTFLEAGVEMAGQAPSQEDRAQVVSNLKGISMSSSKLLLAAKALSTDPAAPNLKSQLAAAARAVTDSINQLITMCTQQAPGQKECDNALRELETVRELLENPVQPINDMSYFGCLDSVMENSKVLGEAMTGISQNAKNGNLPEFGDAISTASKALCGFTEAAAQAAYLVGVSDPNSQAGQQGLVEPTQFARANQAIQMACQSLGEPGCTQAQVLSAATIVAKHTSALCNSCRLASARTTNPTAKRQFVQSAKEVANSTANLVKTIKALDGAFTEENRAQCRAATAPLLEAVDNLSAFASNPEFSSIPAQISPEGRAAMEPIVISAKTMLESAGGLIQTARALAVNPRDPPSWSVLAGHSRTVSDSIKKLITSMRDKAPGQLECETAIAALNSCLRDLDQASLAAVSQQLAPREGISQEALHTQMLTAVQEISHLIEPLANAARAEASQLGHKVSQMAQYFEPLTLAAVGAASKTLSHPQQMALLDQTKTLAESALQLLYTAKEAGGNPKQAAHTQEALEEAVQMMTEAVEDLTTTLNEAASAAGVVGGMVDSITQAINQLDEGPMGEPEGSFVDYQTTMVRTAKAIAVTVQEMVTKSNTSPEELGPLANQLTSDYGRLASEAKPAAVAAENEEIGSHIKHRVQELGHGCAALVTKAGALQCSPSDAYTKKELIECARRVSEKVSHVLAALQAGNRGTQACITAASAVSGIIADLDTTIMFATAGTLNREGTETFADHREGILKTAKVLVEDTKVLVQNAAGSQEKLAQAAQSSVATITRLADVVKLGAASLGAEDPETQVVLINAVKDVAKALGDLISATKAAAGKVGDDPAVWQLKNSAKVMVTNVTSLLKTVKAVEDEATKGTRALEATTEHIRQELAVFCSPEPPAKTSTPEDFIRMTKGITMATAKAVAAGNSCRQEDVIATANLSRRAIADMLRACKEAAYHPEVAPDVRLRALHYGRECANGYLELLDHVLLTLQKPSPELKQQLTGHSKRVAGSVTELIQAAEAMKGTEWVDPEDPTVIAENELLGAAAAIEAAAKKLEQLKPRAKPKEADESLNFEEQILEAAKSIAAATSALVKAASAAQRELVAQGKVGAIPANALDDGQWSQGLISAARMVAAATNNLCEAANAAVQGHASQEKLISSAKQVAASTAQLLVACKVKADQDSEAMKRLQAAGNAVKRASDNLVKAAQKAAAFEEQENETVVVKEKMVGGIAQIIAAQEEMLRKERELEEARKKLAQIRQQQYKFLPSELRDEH
UniProt Q9Y4Z0: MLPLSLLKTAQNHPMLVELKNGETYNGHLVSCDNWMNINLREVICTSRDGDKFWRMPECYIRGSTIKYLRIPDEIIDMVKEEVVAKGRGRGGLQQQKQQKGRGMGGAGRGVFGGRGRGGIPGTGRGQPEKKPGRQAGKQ
UniProt Q9Y570: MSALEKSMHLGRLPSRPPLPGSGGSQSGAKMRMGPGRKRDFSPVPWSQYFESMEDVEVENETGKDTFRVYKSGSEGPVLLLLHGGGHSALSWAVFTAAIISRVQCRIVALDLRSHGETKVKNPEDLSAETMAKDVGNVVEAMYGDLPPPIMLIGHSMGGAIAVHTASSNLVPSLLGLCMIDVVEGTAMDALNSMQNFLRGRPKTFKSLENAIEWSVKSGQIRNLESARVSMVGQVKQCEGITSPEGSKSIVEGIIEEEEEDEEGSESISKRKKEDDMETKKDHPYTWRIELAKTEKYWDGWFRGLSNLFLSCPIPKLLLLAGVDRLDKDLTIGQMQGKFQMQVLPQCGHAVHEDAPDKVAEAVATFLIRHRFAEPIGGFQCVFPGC
UniProt Q9Y6E0: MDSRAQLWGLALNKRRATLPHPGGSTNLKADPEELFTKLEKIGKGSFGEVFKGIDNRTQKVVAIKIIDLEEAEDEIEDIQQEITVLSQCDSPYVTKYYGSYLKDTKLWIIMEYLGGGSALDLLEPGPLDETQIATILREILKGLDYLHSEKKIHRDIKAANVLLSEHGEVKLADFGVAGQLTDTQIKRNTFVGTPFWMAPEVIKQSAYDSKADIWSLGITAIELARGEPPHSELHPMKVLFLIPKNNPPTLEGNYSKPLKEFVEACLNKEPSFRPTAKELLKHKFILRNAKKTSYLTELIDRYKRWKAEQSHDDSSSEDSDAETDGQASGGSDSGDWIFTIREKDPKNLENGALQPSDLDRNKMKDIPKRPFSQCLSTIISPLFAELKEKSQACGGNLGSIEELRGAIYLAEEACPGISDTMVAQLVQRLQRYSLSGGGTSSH

What follows is the remainder of the data, with few or none of the targets with a hit. The data scatter; read single values as rough. Only a part is listed here, and it is no random draw.

Compound in the assay: COC(=O)/C=C/c1ccccc1 [methyl cinnamate]
Nature of the assay: log2 ratio of iodoacetamide-alkyne labeling of the cysteine site, DMSO over compound (competition); higher = stronger covalent engagement of the cysteine by the compound, active = 1 or more. The settings on record: 500 µM; treatment time 1 h; system: HEK293T cell lysate. A digest of the protocol:
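Three replicates, each with duplicate channels, were prepared from HEK293T lysate (2 mg/mL) treated with vehicle or electrophile at 500 µM for 1 h at ambient temperature. Iodoacetamide alkyne was then applied for 1 h, and samples were clicked to sCIP-TMT reagents, pooled, trypsin-digested overnight at 37 °C, enriched on streptavidin, acid-eluted and analysed on Orbitrap Eclipse LC-MS/MS with FAIMS, with FragPipe quantification. The log2 competition ratio per cysteine is the mean control-channel divided by the mean compound-channel reporter intensity. Cysteines quantified in only one replicate were left out.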
Take UniProt Q9Y678_C706: the “log2 ratio of iodoacetamide-alkyne labeling” value (shortened to “log2 ratio”) is inactive: -0.0308.
Next, IKBKG C347 (UniProt Q9Y6K9): inactive: 0.288.
For the target LAS1L C306 (UniProt Q9Y4W2), the “log2 ratio” value is inactive: 0.0103.
For CD2AP C540 (UniProt Q9Y5K6), the “log2 ratio” value is inactive: 0.46.
As for FHOD1 C31 (UniProt Q9Y613), the “log2 ratio” value is inactive: 0.0942.
As for AFG3L2 C313 (UniProt Q9Y4W6), the “log2 ratio” value was inactive: 0.0347.
For ARIH1 C327 (UniProt Q9Y4X5) the value was inactive: 0.287; for AUP1 C391 (UniProt Q9Y679), inactive: 0.0496; for TCAF1 C488 (UniProt Q9Y4C2), inactive: 0.213.
Next, NUBP2 C72 (UniProt Q9Y5Y2): inactive: 0.193; USP15 C264 (UniProt Q9Y4E8): inactive: 0.415.
Consider LAS1L C140 (UniProt Q9Y4W2), for which the “log2 ratio” value was inactive: 0.332.
Next, UniProt Q9Y4B6_C1070: inactive: 0.039; TLN1 C2161 (UniProt Q9Y490): inactive: 0.0593.
For LSM4 C45 (UniProt Q9Y4Z0), the “log2 ratio” value was inactive: 0.267.
Take UniProt Q9Y520_C223: the “log2 ratio” value was inactive: 0.239.
For TCAF1 C144 (UniProt Q9Y4C2) the value was inactive: 0.248.
As for UniProt Q9Y5Q3_C64, the “log2 ratio” value is inactive: 0.298.
PPME1 C238 (UniProt Q9Y570): the “log2 ratio” value is inactive: 0.289.
Next, UniProt Q9Y6E0_C415: inactive: -0.0435; MAP3K4 C596 (UniProt Q9Y6R4): inactive: 0.486; TLN1 C1558 (UniProt Q9Y490): inactive: 0.388.
In the case of PPME1 C381 (UniProt Q9Y570), the “log2 ratio” value is inactive: 0.241.
As to PPME1 C386 (UniProt Q9Y570), the “log2 ratio” value was inactive: 0.241.
For the target TAF6L C41 (UniProt Q9Y6J9), the “log2 ratio” value is inactive: 0.179.
For RAD54B C63 (UniProt Q9Y620) the value was inactive: 0.251; for TACC3 C206 (UniProt Q9Y6A5), inactive: -0.119; for TACC3 C459 (UniProt Q9Y6A5), inactive: 0.0308.
For TCAF1 C576 (UniProt Q9Y4C2) the value was inactive: 0.0324; for SEC23IP C457 (UniProt Q9Y6Y8), inactive: -0.0965; for LSM4 C32 (UniProt Q9Y4Z0), inactive: 0.0973.
